Experimental data reported in PubChem BioAssay AID1487 (National Center for Advancing Translational Sciences (NCATS), 2009).
Out of some 200,000 compounds screened, about 25 (0.01%) were called active. Inconclusive results, whose numbers are uncertain, are shown with a selection of clear calls. The call rests on the fitted dose curve; in most records, active means well fitted inhibition curve with a large enough effect in the signal ratio, with a control signal flat (not every such curve was filed as active); inconclusive means small, poorly fitted or top-dose-only effect, or effect the other way, or a change in a side signal; inactive means flat fitted curve, though single readings scatter; the % refers to the signal ratio. Potencies beside an inconclusive call are fits to weak or partial responses and may not hold up.

Experiment: qHTS Assay for Modulators of Lamin A Splicing
Details: HeLa LMNA splicing GFP/RFP minigene ratio, 48 h; ratio change, negative = inhibition: at 46.1 µM (top of the series) unless noted
Summary of the method: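 Read-out is the ratio of GFP to DsRed2 object intensity, acquired by 488 nm laser-scanning cytometry on HeLa lamin A-EGFP minigene reporter cells. Compound incubation 48 hrs at 37 °C in Opti-MEM with 2% FBS; DMSO 0.5% final.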
On the % scale 0 is the no-effect control and ±100 the full control effect; potency means the concentration at half of the fitted maximal effect.

Structure (SMILES) | ratio change, negative = inhibition | Potency
CCOC(=O)c1sc2nc3c(SCCC#N)cc(C(=O)c4cc(F)ccc4O)cn3c(=O)c2c1C | inactive | –
COc1cc(CC(NC(C)=O)C(=O)NC2CCN(C(=O)C3CC3)CC2)cc(OC)c1 (stereo unspecified) | inconclusive: 10.1% [at 46 µM] | –
COc1cc(NC(=S)NCCSc2ccc(C)cc2)cc(OC)c1 | – | inconclusive: 35.5 µM [falling, single point]
COc1ccc(-c2nc(-c3cc4cc(Br)ccc4oc3=O)cs2)cc1 | inconclusive: 27.9% [at 46 µM] | –
CN1/C(=C\C(=S)NC(=O)c2cccc(Br)c2)C(C)(C)c2ccccc21 | – | inconclusive: 35.5 µM [falling, partial curve, poor fit]
O=C(Nc1ccccc1N1CCCCC1)c1ccc(-c2cccc(Cl)c2)o1 | inconclusive: -10.4% | –
O=C(NNC(=O)C1CCCN(S(=O)(=O)c2cccc(F)c2)C1)C1CC1 (stereo unspecified) | inconclusive: -2.82% [at 46 µM] | –
O=C(/C=C\c1ccco1)c1ccc(NC(=O)c2ccco2)cc1 | inconclusive: -26.3% [at 46 µM] | –
CCc1nnc(NC(=O)CCN2C(=O)c3ccccc3C2=O)s1 | inconclusive: 9.22% | –
Cc1ccccc1-c1nc(SCC(=O)NCc2ccc(F)cc2)c2c(=O)n(C)c(=O)n(C)c2n1 | inconclusive: -0.667% [at 46 µM] | –
O=S(=O)(/C=C/c1ccccc1)NC1CCCCCCC1 | inconclusive: 1.38% | –
COc1ccc(Cl)cc1C(=O)N(Cc1nc(-c2cccc(C)c2)no1)C(C)C | – | inconclusive: 35.5 µM [falling, single point]
CCOc1ccc(N2CC(NC(=O)C3CCCC3)CC2=O)cc1 (stereo unspecified) | inconclusive: -4.64% [at 46 µM] | –
O=C(CSCc1cccc(Br)c1)NC1CC1 | inconclusive: 14.4% | –
CCOC(=O)C1(Cc2ccccc2)CCN(Cc2ccc(C)s2)CC1 | inconclusive: -24.8% [at 46 µM] | –
CCNS(=O)(=O)c1c(C)cc(N2CCCC2=O)cc1C | inconclusive: 51.7% | –
CN1CCC(N(C)C(=O)CCc2nc3ccccc3n2-c2ccccc2)CC1 | – | inconclusive: 5.62 µM [rising, single point]
CN(NC(=O)c1ccc(Cl)cc1)c1cccc(Cl)n1 | inactive | –
COc1ccc(C(=O)Nc2ccc(N3CCCCC3)cc2)cc1Br | inconclusive: 7.63% | –
COC(=O)c1scc(-c2ccc(C)cc2)c1S(=O)(=O)Nc1cc(C)ccc1OC | inactive | –
COc1ccccc1C(=O)Nc1sc(Nc2ccccc2)nc1C(N)=O | inconclusive: -28.3% [at 46 µM] | –
CC(C)CC(NC(=O)c1ccc(C#CC(C)(C)O)s1)C(=O)O (stereo unspecified) | inconclusive: 10.4% [at 46 µM] | –
COC(=O)CNC(=O)C(CCSC)NC(C)=O (stereo unspecified) | inconclusive: 19.6% [at 46 µM] | –
CCOc1ccc(N2C(=O)CC(Sc3ccccc3C(=O)O)C2=O)c([N+](=O)[O-])c1 (stereo unspecified) | inactive | –
O=C(NCC1CCCO1)c1ccc(COc2ccccc2Br)cc1 (stereo unspecified) | inconclusive: -38.5% | –
O=C(NCc1ccco1)c1cccc2c1C(=O)N(C1CCCCC1)C2 | inactive | –

Structure (SMILES) | ratio change, negative = inhibition | Potency
CC(C)(C)C(=O)Nc1ccccc1C(=O)OCc1cc(=O)n2ccsc2n1 | inactive | –
COc1ccc(NC(=O)Cc2coc3ccc4ccccc4c23)cc1S(=O)(=O)N1CCOCC1 | – | inconclusive: 35.5 µM [falling, partial curve]
C=Cc1c(C)c2cc3nc(cc4[nH]c(cc5nc(cc1[nH]2)C(C)=C5CCC(=O)O)c(CCC(=O)OC)c4C)[C@@]1(C)C3=CC=C(C(=O)OC)[C@H]1C(=O)OC (tested in a mixture with another compound) | – | inconclusive: 12.6 µM [inhibitor, single point]
Cc1nnc(NC(=O)c2ccc(S(=O)(=O)N(C)Cc3ccccc3)cc2)o1 | – | inconclusive: 12.6 µM [falling, single point]
Cc1cc(=O)oc2cc(O)c(O)cc12 | inactive | –
CCOC(=O)N1CCN(Cc2ccc(O)c3ncccc23)CC1 | inconclusive: -17.5% [at 46 µM] | –
O=C(CCC(=O)Nc1ccccc1)NNC(=O)c1ccccc1Cl | inactive: -0.93% [at 9.22 µM] | –
CN(C)c1ccc(C(CNS(=O)(=O)c2ccc(Cl)cc2)N2CCOCC2)cc1 (stereo unspecified) | inactive | –
Cc1cc(=O)oc2cc(Oc3ncccc3[N+](=O)[O-])ccc12 | inactive | –
O=C(Oc1c(Br)cc([N+](=O)[O-])cc1Br)c1cccnc1 | inconclusive: -51.2% | –
Cn1nnnc1SCCCNCc1cccc(OCc2ccc(F)cc2)c1 | inactive | –
Cc1cccc(N2CCN(C(=O)C3CCN(c4ncnc5c4nc4n5CCCCC4)CC3)CC2C)c1 (stereo unspecified) | – | inconclusive: 11.2 µM [inhibitor, partial curve, poor fit]
CCCCC(=O)OCC(=O)Nc1ccc(C)c(F)c1 | inconclusive: -1.87% [at 46 µM] | –
CCOc1ccc(C2=Cc3cc(OC)c(OC)cc3C(=C(Cl)Cl)O2)cc1 | inconclusive: 25.1% | –
Cc1cccc(CNc2cc(-c3c(C)noc3C)ncn2)c1 | – | inconclusive: 12.6 µM [inhibitor, partial curve]
O=C(COC(=O)Cc1c[nH]c2ccccc12)NC1CCCCC1 | inconclusive: 7.72% [at 46 µM] | –
COc1cc(OC)c(N(C)C(=O)c2c(C)oc3ncn(CC(C)C)c(=O)c23)cc1Cl | inconclusive: -4.17% [at 46 µM] | –
N#Cc1cccc(NC(=S)Nc2ccccc2)c1 | inconclusive: 3.46% | –
Cc1ccc(C(=O)NC(=S)Nc2ccc(NC(=O)c3cccs3)cc2)cc1[N+](=O)[O-] | inactive | –
CCn1c(-c2cccs2)nc2ccccc21 | inactive | –
COC1=C(Nc2ccc(OC)cc2)C(=O)c2ccccc2C1=O | – | inconclusive: 35.5 µM [fluorescent, single point]
Nc1ncnc(NCc2ccccc2)c1[N+](=O)[O-] | inactive | –
COc1cccc(-c2ccc(C#N)c(SCC(=O)NCc3ccco3)n2)c1 | inconclusive: 16.8% [at 46 µM] | –
CCN(CC)S(=O)(=O)c1ccc(N=NC2=C(O)CC(C)(C)CC2=O)cc1 | inconclusive: -5.72% | –
COc1ccc(CNC(=O)CC2C(=O)NCCN2CC(C)(C)C)c(OC)c1 (stereo unspecified) | inconclusive: 14.5% [at 46 µM] | –
Cc1ccc(S(=O)(=O)CCSc2cccc(C(=O)Nc3ccccc3C(=O)O)c2)cc1 | – | inconclusive: 35.5 µM [falling, single point]

Structure (SMILES) | ratio change, negative = inhibition | Potency
c1ccc(C2Oc3ccccc3C3CC(c4cccs4)=NN32)cc1 (stereo unspecified) | – | inconclusive: 12.6 µM [falling, partial curve]
Brc1ccc2nc(-c3cccs3)c(NCC3CCCO3)n2c1 (stereo unspecified) | inconclusive: 21.6% [at 46 µM] | –
COC1CC(O[C@H]2/C(C)=C/CC3CC(C[C@]4(CCC(C)C(C5CCCCC5)O4)O3)OC(=O)[C@H]3C=C(C)/C(=N/O)C4OC/C(=C\C=C\[C@@H]2C)[C@@]43O)OC(C)C1O (stereo partly specified) | inconclusive: -28.9% | –
COC(=O)C1=C(C(=O)OC)[C@@H]2N(C)c3ccccc3[C@@]23C[C@@H](C(=O)OC)N(C(=O)C2CCC2)C3=N1 | inconclusive: 10.3% [at 9.22 µM] | –
O=C(NCc1ccc(F)cc1)C1(c2cccs2)CCOCC1 | inconclusive: -10.8% [at 46 µM] | –
Cc1ccc(C(=O)Oc2ccc(-c3nccc(-c4ccccn4)n3)cc2)cc1 | inactive | –
COc1cc(OC)c2c(=O)c(O)c(-c3ccc(OC)c(OC)c3)oc2c1 | – | inconclusive: 11.2 µM [inhibitor, partial curve]
COc1ccc(C2(C(=O)Nc3ccccc3)CCOCC2)cc1 | inconclusive: -4.27% | –
CCOC(=O)c1ccccc1NC(=O)CN(c1ccccc1C)S(C)(=O)=O | inactive | –
COc1cccc(NC(=O)Nc2nnc(N3CCCCC3C)s2)c1 (stereo unspecified) | inconclusive: -28.8% | –
CCCCC(=O)N/N=C/c1ccc(-c2ccc([N+](=O)[O-])cc2)o1 | inactive | –
Cc1ccc(S(=O)(=O)NCC2CCC(C(=O)NCCCOC(C)C)CC2)cc1 (stereo unspecified) | inconclusive: -6.04% | –
CCCc1cc(=O)[nH]c(-n2[nH]c3c(c2=O)CCCC3)n1 | inactive | –
Cc1ccccc1NC(=O)c1oc2c(c1C)-c1nn(Cc3cccc(Cl)c3)cc1CC2 | inconclusive: 25.5% [at 46 µM] | –
O=C(Nc1nc2c(s1)CCCC2)c1cccc(S(=O)(=O)N2CCCc3ccccc32)c1 | – | inconclusive: 12.6 µM [fluorescent, partial curve, poor fit]
C/C=C1\C2C=C(C)CC1(N)c1ccc(=O)[nH]c1C2 (stereo unspecified) | inconclusive: -0.115% | –
Cc1cc(SCc2cc(=O)n3ccsc3n2)nc2ccccc12 | – | inconclusive: 35.5 µM [falling, single point]
Cc1c(Br)c(=O)oc2c(Br)c(O)ccc12 | inconclusive: -9.16% [at 46 µM] | –
S=C(c1cn(CCOc2ccccc2)c2ccccc12)N1CCCC1 | inactive | –
O=C(/C=C/c1ccccc1)N1c2ccccc2Sc2ccc(C(F)(F)F)cc21 | inconclusive: -45.4% | –
CCOC(=O)c1ccc(CN(Cc2ccc(Br)cc2)S(=O)(=O)c2cccc(Cl)c2C)cc1 | inconclusive: -4.64% [at 46 µM] | –
CCc1ccc(C2C(C(=O)Nc3ccccc3C)=C(C)Nc3nc(SCc4cccc(OC)c4)nn32)cc1 (stereo unspecified) | inactive | –
COCCN(Cc1cc2cc(C)ccc2n2nnnc12)C(=S)Nc1ccc(C)cc1 | inconclusive: 1.71% [at 46 µM] | –
CCS(=O)(=O)c1ncc(N(Cc2ccco2)Cc2ccccc2F)c(C(=O)Nc2cccc(Cl)c2)n1 | inconclusive: 22.7% [at 46 µM] | –

Complete entries, looked up by structure:
Cc1ccccc1NC(=O)c1oc2c(c1C)-c1nn(Cc3cccc(Cl)c3)cc1CC2 reads ratio change, negative = inhibition: inconclusive: 25.5% [at 46 µM]
Cc1ccc(C(=O)Oc2ccc(-c3nccc(-c4ccccn4)n3)cc2)cc1 reads ratio change, negative = inhibition: inactive
O=C(/C=C/c1ccccc1)N1c2ccccc2Sc2ccc(C(F)(F)F)cc21 reads ratio change, negative = inhibition: inconclusive: -45.4%
COc1cccc(NC(=O)Nc2nnc(N3CCCCC3C)s2)c1 (stereo unspecified) reads ratio change, negative = inhibition: inconclusive: -28.8%
